{"source": "PubChem BioAssay AID1259405 (NCATS, 2018)", "screen": "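Silenced genes that increase secreted GFP made by CHO cells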 (primary screen)", "cell system": "Chinese hamster CHO-K1 ovary cells with stable secreted eGFP expression", "reagents": "single siRNA against mouse genes, 0.8 pmol siRNA per well (2 µl of 400 nM stock)", "duration": "3 days", "detection": "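Percent of the per-plate non-targeting control median for intracellular GFP per well by laser scanning cytometry and for cell viability by ATP luminescence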", "direction": "GFP, % of control: higher = more GFP per well, higher productivity; viability (ATP), % of control: higher = more viable cells (more ATP)", "active means": "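a knock-down is called active if GFP reaches 120% or more of non-targeting control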", "note": "In all, the deposit lists about 50,000 reagents; below is an unselected part. About 4,000 of all reagents (8%) count as active. 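Mouse siRNA library applied to hamster cells; one well for each siRNA.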 Reagents against one gene are numbered here."}
{"Gene":"Cdc42se2 (CDC42 small effector 2)","reagent no.":1,"GFP, % of control":104,"viability (ATP), % of control":84.2,"activity call":"inactive"}
{"Gene":"Cdc42se2 (CDC42 small effector 2)","reagent no.":2,"GFP, % of control":81.4,"viability (ATP), % of control":78,"activity call":"inactive"}
{"Gene":"Cdc42se2 (CDC42 small effector 2)","reagent no.":3,"GFP, % of control":50.6,"viability (ATP), % of control":56.7,"activity call":"inactive"}
{"Gene":"Vdac3 (voltage-dependent anion channel 3)","reagent no.":1,"GFP, % of control":88.3,"viability (ATP), % of control":78.9,"activity call":"inactive"}
{"Gene":"Vdac3 (voltage-dependent anion channel 3)","reagent no.":2,"GFP, % of control":50.9,"viability (ATP), % of control":57.5,"activity call":"inactive"}
{"Gene":"Vdac3 (voltage-dependent anion channel 3)","reagent no.":3,"GFP, % of control":90.8,"viability (ATP), % of control":73.2,"activity call":"inactive"}
{"Gene":"Brdt (bromodomain, testis-specific)","reagent no.":1,"GFP, % of control":98.5,"viability (ATP), % of control":106,"activity call":"inactive"}
{"Gene":"Brdt (bromodomain, testis-specific)","reagent no.":2,"GFP, % of control":55.1,"viability (ATP), % of control":52.2,"activity call":"inactive"}
{"Gene":"Brdt (bromodomain, testis-specific)","reagent no.":3,"GFP, % of control":84.6,"viability (ATP), % of control":78,"activity call":"inactive"}
{"Gene":"Pax6 (paired box 6)","reagent no.":1,"GFP, % of control":112,"viability (ATP), % of control":59,"activity call":"inactive"}
{"Gene":"Pax6 (paired box 6)","reagent no.":2,"GFP, % of control":120,"viability (ATP), % of control":68.8,"activity call":"active"}
{"Gene":"Pax6 (paired box 6)","reagent no.":3,"GFP, % of control":125,"viability (ATP), % of control":115,"activity call":"active"}
{"Gene":"Bmerb1 (bMERB domain containing 1)","reagent no.":1,"GFP, % of control":49.1,"viability (ATP), % of control":41.5,"activity call":"inactive"}
{"Gene":"Bmerb1 (bMERB domain containing 1)","reagent no.":2,"GFP, % of control":63.5,"viability (ATP), % of control":33.7,"activity call":"inactive"}
{"Gene":"Bmerb1 (bMERB domain containing 1)","reagent no.":3,"GFP, % of control":88.5,"viability (ATP), % of control":85.9,"activity call":"inactive"}
{"Gene":"Vmn1r239-ps (vomeronasal 1 receptor 239, pseudogene)","reagent no.":1,"GFP, % of control":100,"viability (ATP), % of control":61.8,"activity call":"inactive"}
{"Gene":"Vmn1r239-ps (vomeronasal 1 receptor 239, pseudogene)","reagent no.":2,"GFP, % of control":72.2,"viability (ATP), % of control":48.8,"activity call":"inactive"}
{"Gene":"Vmn1r239-ps (vomeronasal 1 receptor 239, pseudogene)","reagent no.":3,"GFP, % of control":49.5,"viability (ATP), % of control":73.2,"activity call":"inactive"}
{"Gene":"Siae (sialic acid acetylesterase)","reagent no.":1,"GFP, % of control":83.4,"viability (ATP), % of control":78.9,"activity call":"inactive"}
{"Gene":"Siae (sialic acid acetylesterase)","reagent no.":2,"GFP, % of control":94.6,"viability (ATP), % of control":78.1,"activity call":"inactive"}
{"Gene":"Siae (sialic acid acetylesterase)","reagent no.":3,"GFP, % of control":60.1,"viability (ATP), % of control":76.9,"activity call":"inactive"}
{"Gene":"Mzt2 (mitotic spindle organizing protein 2)","reagent no.":1,"GFP, % of control":103,"viability (ATP), % of control":102,"activity call":"inactive"}
{"Gene":"Mzt2 (mitotic spindle organizing protein 2)","reagent no.":2,"GFP, % of control":66.4,"viability (ATP), % of control":50.6,"activity call":"inactive"}
{"Gene":"Mzt2 (mitotic spindle organizing protein 2)","reagent no.":3,"GFP, % of control":123,"viability (ATP), % of control":90.6,"activity call":"active"}
{"Gene":"Papola (poly (A) polymerase alpha)","reagent no.":1,"GFP, % of control":96.9,"viability (ATP), % of control":93.9,"activity call":"inactive"}
{"Gene":"Papola (poly (A) polymerase alpha)","reagent no.":2,"GFP, % of control":97.4,"viability (ATP), % of control":88.2,"activity call":"inactive"}
{"Gene":"Gm4876 (predicted gene 4876)","reagent no.":1,"GFP, % of control":47.3,"viability (ATP), % of control":74.5,"activity call":"inactive"}
{"Gene":"Gm4876 (predicted gene 4876)","reagent no.":2,"GFP, % of control":90.3,"viability (ATP), % of control":93.4,"activity call":"inactive"}
{"Gene":"Gm4876 (predicted gene 4876)","reagent no.":3,"GFP, % of control":75.9,"viability (ATP), % of control":70.4,"activity call":"inactive"}
{"Gene":"Tmem68 (transmembrane protein 68)","reagent no.":1,"GFP, % of control":96.1,"viability (ATP), % of control":61.8,"activity call":"inactive"}
{"Gene":"Tmem68 (transmembrane protein 68)","reagent no.":2,"GFP, % of control":54.2,"viability (ATP), % of control":37,"activity call":"inactive"}
{"Gene":"Tmem68 (transmembrane protein 68)","reagent no.":3,"GFP, % of control":55.9,"viability (ATP), % of control":77.9,"activity call":"inactive"}

Reformatted: results already given.
Gene | reagent no. | GFP, % of control | viability (ATP), % of control | activity call
Brdt (bromodomain, testis-specific) | 2 | 55.1 | 52.2 | inactive
Brdt (bromodomain, testis-specific) | 3 | 84.6 | 78 | inactive

Next results follow.
{"Gene":"Tcap (titin-cap)","reagent no.":1,"GFP, % of control":55.6,"viability (ATP), % of control":61.4,"activity call":"inactive"}
{"Gene":"Tcap (titin-cap)","reagent no.":2,"GFP, % of control":94.9,"viability (ATP), % of control":77.2,"activity call":"inactive"}
{"Gene":"Tcap (titin-cap)","reagent no.":3,"GFP, % of control":76.5,"viability (ATP), % of control":81.9,"activity call":"inactive"}
{"Gene":"H2-M1 (histocompatibility 2, M region locus 1)","reagent no.":1,"GFP, % of control":71.2,"viability (ATP), % of control":66,"activity call":"inactive"}
{"Gene":"H2-M1 (histocompatibility 2, M region locus 1)","reagent no.":2,"GFP, % of control":90.7,"viability (ATP), % of control":74.7,"activity call":"inactive"}
{"Gene":"H2-M1 (histocompatibility 2, M region locus 1)","reagent no.":3,"GFP, % of control":63.3,"viability (ATP), % of control":27.6,"activity call":"inactive"}
{"Gene":"Bnip3 (BCL2/adenovirus E1B interacting protein 3)","reagent no.":1,"GFP, % of control":69,"viability (ATP), % of control":59.4,"activity call":"inactive"}
{"Gene":"Bnip3 (BCL2/adenovirus E1B interacting protein 3)","reagent no.":2,"GFP, % of control":72.1,"viability (ATP), % of control":64.9,"activity call":"inactive"}
{"Gene":"Bnip3 (BCL2/adenovirus E1B interacting protein 3)","reagent no.":3,"GFP, % of control":97.8,"viability (ATP), % of control":92.8,"activity call":"inactive"}
{"Gene":"Exo5 (exonuclease 5)","reagent no.":1,"GFP, % of control":91.7,"viability (ATP), % of control":98.7,"activity call":"inactive"}
{"Gene":"Exo5 (exonuclease 5)","reagent no.":2,"GFP, % of control":232,"viability (ATP), % of control":113,"activity call":"active"}
{"Gene":"Exo5 (exonuclease 5)","reagent no.":3,"GFP, % of control":78.7,"viability (ATP), % of control":81.8,"activity call":"inactive"}
{"Gene":"Exo5 (exonuclease 5)","reagent no.":4,"GFP, % of control":90.2,"viability (ATP), % of control":129,"activity call":"inactive"}
{"Gene":"Exo5 (exonuclease 5)","reagent no.":5,"GFP, % of control":91.9,"viability (ATP), % of control":109,"activity call":"inactive"}
{"Gene":"Exo5 (exonuclease 5)","reagent no.":6,"GFP, % of control":83.1,"viability (ATP), % of control":100,"activity call":"inactive"}
{"Gene":"Furin (furin, paired basic amino acid cleaving enzyme)","reagent no.":1,"GFP, % of control":99.9,"viability (ATP), % of control":58.3,"activity call":"inactive"}
{"Gene":"Furin (furin, paired basic amino acid cleaving enzyme)","reagent no.":2,"GFP, % of control":102,"viability (ATP), % of control":69.4,"activity call":"inactive"}
{"Gene":"Furin (furin, paired basic amino acid cleaving enzyme)","reagent no.":3,"GFP, % of control":82.1,"viability (ATP), % of control":79.8,"activity call":"inactive"}
{"Gene":"Armc1 (armadillo repeat containing 1)","reagent no.":1,"GFP, % of control":89.2,"viability (ATP), % of control":52.8,"activity call":"inactive"}
{"Gene":"Armc1 (armadillo repeat containing 1)","reagent no.":2,"GFP, % of control":57.6,"viability (ATP), % of control":68.5,"activity call":"inactive"}
{"Gene":"Armc1 (armadillo repeat containing 1)","reagent no.":3,"GFP, % of control":70.7,"viability (ATP), % of control":90.9,"activity call":"inactive"}
